This test deals with OA1 (human ocular albinism type 1 G-protein-coupled receptor), endogenous in RPE (human (endogenous in RPE)) (UniProt P51810). The experiment in a line: affinity purification with mass spectrometry; adult human RPE lysate immunoprecipitated with anti-OA1; SDS-PAGE, Coomassie bands at 39-41 kDa and 45-48 kDa excised, trypsin digestion, nLC-MSMS, Mascot search.

Chains of the proteins cited; added tags and fusions are not shown.
UniProt P51810: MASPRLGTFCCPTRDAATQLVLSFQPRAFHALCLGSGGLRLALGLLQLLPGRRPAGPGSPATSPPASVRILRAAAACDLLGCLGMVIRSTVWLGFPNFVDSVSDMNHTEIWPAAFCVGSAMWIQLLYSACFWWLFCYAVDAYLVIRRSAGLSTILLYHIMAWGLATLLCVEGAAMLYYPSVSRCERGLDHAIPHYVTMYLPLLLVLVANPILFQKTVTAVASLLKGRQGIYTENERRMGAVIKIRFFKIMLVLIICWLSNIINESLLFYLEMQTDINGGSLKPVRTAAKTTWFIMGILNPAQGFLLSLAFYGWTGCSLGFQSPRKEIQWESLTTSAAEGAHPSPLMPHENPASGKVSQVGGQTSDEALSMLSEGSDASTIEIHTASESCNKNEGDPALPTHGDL
UniProt P08754: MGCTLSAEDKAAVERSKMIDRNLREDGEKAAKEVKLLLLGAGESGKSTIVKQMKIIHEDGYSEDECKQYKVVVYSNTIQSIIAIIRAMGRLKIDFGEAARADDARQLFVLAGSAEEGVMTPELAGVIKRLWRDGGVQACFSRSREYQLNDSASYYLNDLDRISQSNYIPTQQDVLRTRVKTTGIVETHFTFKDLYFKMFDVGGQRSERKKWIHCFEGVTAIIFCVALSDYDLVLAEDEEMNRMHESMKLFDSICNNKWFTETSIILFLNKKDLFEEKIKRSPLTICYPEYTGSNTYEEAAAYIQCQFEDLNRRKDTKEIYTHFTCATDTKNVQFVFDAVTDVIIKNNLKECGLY

These are yes or no findings as the source states them, for the method shown. Binding seen in cells or lysates may run through a third protein. These calls come from enrichment with a bait or labelling near it, and not all partners need be listed.

On to “Gαi3 (guanine nucleotide binding protein, alpha inhibiting activity polypeptide 3), endogenous in human RPE (from UniProt P08754 1-354)”, for which the binding entry is listed as “binds”.

These data come from paper PMC3169599.
